Test results from publication PMC8976915.
These are yes or no findings as the source states them, for the method shown. In cells and extracts the contact can be indirect. A yes stands for co-enrichment or nearness to the bait. Other partners may have been found.

Chains of the proteins cited; added tags and fusions are not shown.
UniProt Q13283: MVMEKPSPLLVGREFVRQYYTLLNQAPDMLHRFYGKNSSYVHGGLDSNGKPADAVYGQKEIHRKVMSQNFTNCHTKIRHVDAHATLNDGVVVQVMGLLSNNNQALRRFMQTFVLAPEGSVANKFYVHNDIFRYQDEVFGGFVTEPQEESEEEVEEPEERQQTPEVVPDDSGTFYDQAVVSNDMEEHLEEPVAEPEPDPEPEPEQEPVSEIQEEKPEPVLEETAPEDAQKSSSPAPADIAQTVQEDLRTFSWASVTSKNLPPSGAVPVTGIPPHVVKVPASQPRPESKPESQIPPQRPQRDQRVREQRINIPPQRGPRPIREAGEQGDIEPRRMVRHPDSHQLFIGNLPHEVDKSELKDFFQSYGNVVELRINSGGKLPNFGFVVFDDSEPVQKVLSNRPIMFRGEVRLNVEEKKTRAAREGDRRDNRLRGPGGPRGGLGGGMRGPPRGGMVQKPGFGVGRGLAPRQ
UniProt Q9NR30: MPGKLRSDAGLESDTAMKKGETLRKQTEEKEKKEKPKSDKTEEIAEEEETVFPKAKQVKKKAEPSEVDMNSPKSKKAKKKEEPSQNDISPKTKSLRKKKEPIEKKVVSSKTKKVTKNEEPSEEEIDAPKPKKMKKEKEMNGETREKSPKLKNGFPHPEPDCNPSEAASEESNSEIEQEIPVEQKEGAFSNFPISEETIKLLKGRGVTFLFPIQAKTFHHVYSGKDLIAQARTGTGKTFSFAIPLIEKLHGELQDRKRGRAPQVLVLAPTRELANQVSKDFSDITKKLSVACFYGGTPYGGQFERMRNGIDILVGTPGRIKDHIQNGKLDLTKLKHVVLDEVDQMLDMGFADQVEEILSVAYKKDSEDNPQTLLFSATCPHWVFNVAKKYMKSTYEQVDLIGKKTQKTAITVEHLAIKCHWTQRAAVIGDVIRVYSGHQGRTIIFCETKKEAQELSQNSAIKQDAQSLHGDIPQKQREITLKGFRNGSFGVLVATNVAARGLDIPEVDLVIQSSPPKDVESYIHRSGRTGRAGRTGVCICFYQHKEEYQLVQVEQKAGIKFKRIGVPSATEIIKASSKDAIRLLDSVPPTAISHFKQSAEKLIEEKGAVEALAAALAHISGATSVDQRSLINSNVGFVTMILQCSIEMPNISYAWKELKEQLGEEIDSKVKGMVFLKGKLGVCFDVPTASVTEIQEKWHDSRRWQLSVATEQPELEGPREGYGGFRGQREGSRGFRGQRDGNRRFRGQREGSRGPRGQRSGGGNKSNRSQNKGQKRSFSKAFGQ
UniProt Q15717: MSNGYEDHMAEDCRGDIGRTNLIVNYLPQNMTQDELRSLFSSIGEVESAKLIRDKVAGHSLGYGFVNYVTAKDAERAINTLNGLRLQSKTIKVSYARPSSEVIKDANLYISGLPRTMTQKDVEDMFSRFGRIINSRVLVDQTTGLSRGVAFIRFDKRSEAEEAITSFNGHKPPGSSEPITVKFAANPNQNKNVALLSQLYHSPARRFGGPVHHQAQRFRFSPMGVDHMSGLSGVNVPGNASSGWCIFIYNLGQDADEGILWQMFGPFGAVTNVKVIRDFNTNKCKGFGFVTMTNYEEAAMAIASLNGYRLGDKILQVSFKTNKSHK

Biological target: GFP-G3BP1 (Ras-GTPase activating SH3 domain-binding protein 1) (UniProt Q13283)
Assay: affinity purification with mass spectrometry; U2OS GFP-G3BP1 cells treated with VFS for 1 h; granule-enriched fraction made by sequential centrifugation; IP with anti-GFP antibody (control IgG) and Protein A Dynabeads at 4°C; washes with SG lysis buffer + 2 M urea, + 300 mM potassium acetate, then TE; LC-MS/MS, MaxQuant; hits at ≥1 log2-fold over control IgG

binding | Substance
binds | DDX21 (from UniProt Q9NR30 1-783)
binds | ELAVL1 (from UniProt Q15717 1-326)
